The record followed here is PubChem BioAssay AID2685 (National Center for Advancing Translational Sciences (NCATS), 2010).

A word on the AC50: it is the midpoint of the concentration-response curve, whichever way the signal moves.

A short description of this experiment: qHTS Assay for Lipid Storage Modulators in Drosophila S3 Cells.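 As to cell number change: cells counted by Cell Tracker Red CMTPX staining in the red channel.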 The settings on record: BODIPY lipid droplet fluorescence, 18-24 h; for cell number change: measured here: cell count max response, cells fed with added oleic acid. The method, boiled down: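 Laser-scanning cytometry quantifies lipid droplet accumulation (500–530 nm total intensity; droplet/cell object ratio) in oleic acid-fed (400 uM added) Drosophila S3 cells treated with a concentration series. 20 uM Triacsin C defined 100% inhibition.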
Background: In qHTS, concentration-response curves come from the screen itself.

Setting [1] is: measured here: cell number channel AC50, cells fed with added oleic acid.
The mark [2] stands for this setting: measured here: lipid fluorescence (Fed channel) AC50, cells fed with added oleic acid.

SMILES strings stand for the structures. The list shows a part of the results. Shown are side measurements of this screen, not its main read-out; they come without a call. The list favours compounds with an active or inconclusive main result. The note in brackets gives the kind of curve behind each potency; many fits are weak.

With `Cc1c(C(=O)NCCSCc2ccco2)cccc1[N+](=O)[O-]`, the cell number change was -1.73%.
For the compound `CC1=C(C(=O)Nc2ccccc2)C(c2cccs2)C(C#N)=C(SCC#N)N1` (stereo unspecified), the cell number change came out at 44.7%. For the same compound, the AC50 under setting [1] was 29.1 µM [rising, single point]. In addition, the AC50 under setting [2] was 29.1 µM [rising, partial curve, poor fit].
In the case of `O=C(NC(=S)Nc1ccc(CN2CCOCC2)cc1)c1ccc(-c2cccc(Cl)c2)o1`, the cell number change turned out to be 15.2%.
Consider `CN(CCOc1ccc(Cl)cc1)CC(=O)Nc1ccc(OC(F)(F)F)cc1`, for which the cell number change was -54.4%. Further, the AC50 under setting [1] was 29.1 µM [falling, single point]. In addition, the AC50 under setting [2] was 16.4 µM [falling, single point].
Take `Cc1cc(C)c(C#N)c(SCc2nc3ccccc3[nH]2)n1`: the AC50 was 0.164 µM [rising, full curve] under setting [1] and 0.092 µM [rising, full curve, poor fit] under setting [2].
On to `CCCCC(=O)Nc1ccc2c(c1)nc1n2CCSC1`, for which the cell number change came out at 17.2%. Moreover, the AC50 under setting [2] is 1.46 µM [rising, partial curve].
For `COc1ccc(-c2sc3ccccc3c2C#CCCO)cc1`, the cell number change is -10.8%.
With `CN(CC(=O)Nc1ccccc1Cl)C(=O)C1CSC2(C)CCC(=O)N12` (stereo unspecified), the cell number change is -37.2%. Further, under setting [1], the half-maximal activity concentration (AC50) is 0.82 µM [falling, full curve]. The AC50 under setting [2] was 0.58 µM [falling, full curve].
With `O=C(O)Cn1cc(C(=O)c2cccs2)c2ccccc21`, the cell number change was 7.26%. Also, the AC50 under setting [1] is 6.51 µM [falling, single point].
On to `CC(Sc1n[nH]c(N)n1)C(=O)NC1CCCCC1C` (stereo unspecified), for which the cell number change worked out at 21%. For the same compound, the AC50 under setting [2] was 29.1 µM [rising, single point].
For the compound `C/C(=N\Nc1nc2ccccc2[nH]1)c1cc2ccccc2o1`, the cell number change is -68.2%. Moreover, the AC50 under setting [1] is 16.4 µM [falling, partial curve]. Further, the AC50 under setting [2] is 16.4 µM [falling, partial curve].
On to `COc1ccc(NS(=O)(=O)c2ccc(NS(=O)(=O)c3cccc(C(=O)O)c3)cc2)cc1`, for which the cell number change was -5.13%. In addition, the AC50 under setting [2] is 0.116 µM [falling, single point].
Regarding `CC(C)c1ccc(S(=O)(=O)N2CCN(C(=O)C3CCCCC3)CC2)cc1`, the cell number change came out at 3.28%. The AC50 under setting [2] is 6.51 µM [falling, single point].
Regarding `Cc1cc(OCC(O)CN2CCc3ccccc3C2)cc(C(C)C)c1` (stereo unspecified), the cell number change is -65.7%. Moreover, the AC50 under setting [1] was 18.4 µM [falling, partial curve]. In addition, under setting [2], the AC50 is 18.4 µM [falling, partial curve].
Take `CCN(C(=O)CSc1cc(C)c2ccccc2n1)c1c(N)n(Cc2ccccc2)c(=O)[nH]c1=O`: the cell number change is -13.9%. Further, the AC50 under setting [2] was 8.2 µM [falling, partial curve].
`O=C(CNC(=O)C1CCCCC1)OCc1cc(=O)oc2ccc3ccccc3c12`: the cell number change is -7.81%.
As to `NS(=O)(=O)c1ccc(CCNC(=O)c2cc(-c3ccccc3)nc3ccccc23)cc1`, the cell number change is -26.8%. Moreover, the AC50 under setting [1] is 4.11 µM [rising, partial curve]. In addition, the AC50 under setting [2] is 4.61 µM [rising, single point].
In the case of `COc1ccc2[nH]c3c(NCCC4=CCCCC4)ncnc3c2c1`, the cell number change is -51.7%. The AC50 under setting [1] is 13 µM [falling, partial curve]. Also, the AC50 under setting [2] is 9.2 µM [falling, partial curve].
With `CC(C)Nc1nc(NC(C)C)nc(OCCOC(=O)c2ccccc2)n1`, the cell number change is -16.9%. Also, the AC50 under setting [2] is 4.61 µM [rising, single point].
Take `COc1ccc(CNC(=O)/C=C/c2ccc(OCCCF)cc2)cc1OC`: the cell number change was -43.4%. Also, the AC50 under setting [1] was 7.31 µM [falling, partial curve]. In addition, the AC50 under setting [2] is 13 µM [falling, partial curve].
Take `CN(C)C(C)(C)C#CC(O)(c1ccccc1)c1ccccc1`: the cell number change was 17.5%.
On to `C#CCOCCOCCOCCNc1nc(N2CCN(C(=O)Cn3cc(CC(C)O)nn3)CC2)nc(N2CCN(C(=O)Cn3cc(CC(C)O)nn3)CC2)n1` (stereo unspecified), for which the cell number change is -27.2%. In addition, the AC50 under setting [2] is 29.1 µM [falling, single point].
As for `CC(=O)N1CCN(c2ccc(NC(=S)NC(=O)c3ccccc3)cc2)CC1`, the cell number change amounted to 85.8%. Besides, the AC50 under setting [1] is 29.1 µM [rising, single point]. The AC50 under setting [2] was 23.1 µM [rising, single point].
As to `CC(=O)c1cc2c(cc1NS(=O)(=O)c1ccccc1F)OCO2`, the cell number change was 41.2%. Moreover, the half-maximal activity concentration (AC50) under setting [1] was 8.2 µM [rising, partial curve]. Further, the AC50 under setting [2] is 29.1 µM [rising, single point].
On to `O=C(COC(=O)c1ccc[nH]c1=O)NCCc1ccc(F)cc1`, for which the cell number change was -38.1%. Further, under setting [1], the AC50 was 18.4 µM [falling, partial curve, poor fit]. In addition, the AC50 under setting [2] was 8.2 µM [falling, partial curve].
As for `Cc1ccccc1Nc1nc(N)nc(CSc2nnc(C)n2C)n1`, the cell number change amounted to 55.1%. The AC50 under setting [1] is 29.1 µM [rising, partial curve, poor fit]. Further, the AC50 under setting [2] was 4.61 µM [falling, single point].
For the compound `COc1ccc(NC(=O)CN(C)C(=O)Cc2ccc(-c3ccccc3)cc2)cc1`, the cell number change was -22.2%. For the same compound, the AC50 under setting [2] was 29.1 µM [falling, single point].
With `O=C(NCC1CC1)c1onc(CSc2nc3ccccc3[nH]2)c1C(=O)NCC1CC1`, under setting [2], the AC50 is 23.1 µM [falling, single point].
Take `CC(=O)Nc1ccc(-c2nnc(SCc3ccc(C)cc3)n2C)cc1`: the cell number change was 81.4%. The AC50 under setting [1] is 7.31 µM [rising, partial curve].
`COCCNc1nc(-n2nc(C)cc2C)nc2sc3c(c12)CCCC3`: the cell number change is -13.6%.
As to `CN(CC(=O)Nc1ccc(N2CCOCC2)cc1)CC(=O)Nc1ccc(Cl)cc1[N+](=O)[O-]`, the cell number change is 0.809%. Further, the AC50 under setting [2] was 29.1 µM [rising, single point].
Regarding `Cc1cc(C)nc(SCCn2c(N3CC(C)OC(C)C3)nc3c2c(=O)n(C)c(=O)n3C)n1` (stereo unspecified), the cell number change is -21.8%. For the same compound, the AC50 under setting [1] was 0.092 µM [falling, full curve, poor fit].
As to `COc1cc(NC(=S)Nc2cccnc2)cc(OC)c1`, the cell number change came to 13.3%. Also, under setting [2], the AC50 is 3.26 µM [rising, full curve, poor fit].
As for `COc1ccc(CN(C)c2nc(-c3cccnc3)nc3ccccc23)cc1OC`, the AC50 under setting [1] is 0.092 µM [rising, full curve, poor fit].
For the compound `Nc1c(-c2cccc([N+](=O)[O-])c2)nc2ccccn12`, the cell number change was -2.07%. In addition, under setting [2], the AC50 was 10.3 µM [rising, partial curve, poor fit].
As to `Cc1cc(C)cc(-n2ncc3c2CCCC3NC(=O)c2csnn2)c1` (stereo unspecified), the cell number change is -68.8%. The AC50 under setting [1] is 0.1 µM [falling, full curve]. In addition, the AC50 under setting [2] was 0.1 µM [falling, full curve].
Take `O=C(Cc1noc2ccccc12)NNC(=S)Nc1ccc(Cl)cc1`: the cell number change amounted to 12.7%.
Turning to `CN(Cc1ccccc1)S(=O)(=O)c1ccc(NC(=S)NC(=O)C(C)(C)C)cc1`, the cell number change amounted to 146%. Besides, the AC50 under setting [1] was 18.4 µM [rising, single point]. Besides, under setting [2], the AC50 is 2.59 µM [rising, full curve, poor fit].
In the case of `N#CC1=C(N)C(C#N)(C#N)[C@H](c2cccnc2)[C@H]2CN(C(=O)OCc3ccccc3)CC=C12`, the cell number change turned out to be 3.58%.
Regarding `CCOC(=O)C1C(=O)C=C(c2ccc([N+](=O)[O-])cc2)CC1c1ccccc1` (stereo unspecified), under setting [2], the AC50 was 6.51 µM [rising, single point].
`COC(=O)c1ccccc1NC(=O)Cn1cc(Br)cn1`: the cell number change stood at 1.87%. For the same compound, the AC50 under setting [2] is 29.1 µM [rising, partial curve].
For `O=C(CSc1nnc(NC(=O)c2c(F)cccc2F)s1)NCC1CCCO1` (stereo unspecified), the cell number change is -14.2%. Further, the AC50 under setting [1] is 1.46 µM [falling, partial curve, poor fit]. Under setting [2], the AC50 is 0.259 µM [falling, full curve, poor fit].
On to `N#C/C(=C\c1c(F)cccc1Cl)S(=O)(=O)c1ccccn1`, for which the cell number change came to 1.45%. The AC50 under setting [2] is 0.00461 µM [falling, full curve, poor fit].
In the case of `CC1CCc2ccccc2N1C(N)=Nc1ccccc1` (stereo unspecified), the cell number change is -52.4%. The AC50 under setting [1] was 1.03 µM [falling, full curve, poor fit]. The AC50 under setting [2] is 0.92 µM [falling, full curve, poor fit].
Consider `CCCCOc1ccc(N(CC(=O)NC(C)(C)CC)C(=O)CCC(=O)Nc2ccccn2)cc1`, for which the cell number change was -5.11%. Under setting [2], the AC50 was 0.461 µM [falling, full curve, poor fit].
`COc1cccc(OC)c1C(=O)OCC(=O)Nc1cccnc1Cl`: the AC50 reads like this: under setting [1], 0.411 µM [rising, full curve]; under setting [2], 0.411 µM [rising, full curve].
With `COc1ccc(NC(=O)c2ccc(S(=O)(=O)N(C)C)cc2)cc1OC`, the cell number change was determined as 5.24%.
On to `Nc1ccc(S(=O)(=O)Nc2nccc(/C=C/c3ccc([N+](=O)[O-])cc3)n2)cc1`, for which the cell number change was found to be 5.13%. The AC50 under setting [2] was 0.291 µM [rising, partial curve, poor fit].
`Cc1ccccc1CSc1nc2c(c(=O)[nH]1)CCCC2`: the AC50 is, setting by setting: under setting [1], 4.11 µM [falling, single point]; under setting [2], 29.1 µM [rising, single point].
On to `COc1ccccc1N1CCN(C2CCCN(C(=O)c3snnc3C)C2)CC1` (stereo unspecified), for which the cell number change was 5.9%. Under setting [2], the AC50 is 4.11 µM [rising, full curve].
As for `COc1ccc(CCn2c(=N)c(S(=O)(=O)c3ccccc3)cc3c(=O)n4ccccc4nc32)cc1`, the cell number change is 8.36%. In addition, under setting [2], the AC50 is 6.51 µM [falling, single point].
As for `COc1ccccc1N1CCN(C(=O)c2cc(-c3ccc(F)cc3)on2)CC1`, the cell number change turned out to be 7.21%.
Regarding `Cc1cc(Br)ccc1NC(=O)CN(C)C(=O)Cn1c(=O)cnc2ccccc21`, the cell number change came out at 14.6%. Besides, under setting [2], the AC50 was 0.517 µM [rising, single point].
For `CS(=O)(=O)c1ccccc1C(=O)N1CCN(Cc2ccccc2)CC1`, the cell number change was found to be 22.2%. Moreover, under setting [2], the AC50 is 29.1 µM [rising, single point].
As for `Nc1nonc1-n1nnc(C(=O)O)c1-c1cccs1`, the cell number change was -181%. For the same compound, under setting [1], the AC50 was 6.51 µM [falling, full curve]. The AC50 under setting [2] was 4.11 µM [falling, full curve].
On to `CCc1cc2c(=O)n(-c3ccccc3)c(SCC(N)=O)nc2s1`, for which the cell number change is -18.6%. Also, under setting [2], the AC50 is 3.66 µM [falling, full curve, poor fit].
